Results deposited as PubChem BioAssay AID1259405 (NCATS, 2018)
Assay: 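Silenced genes that increase secreted GFP made by CHO cells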 (primary screen). Cell system: Chinese hamster CHO-K1 ovary cells with stable secreted eGFP expression. Knock-down reagent: single siRNA against mouse genes, 0.8 pmol siRNA per well (2 µl of 400 nM stock). Duration: 3 days. Read-out: 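Per-well intracellular GFP measured by laser scanning cytometry, plus viability from ATP luminescence, each relative to plate median of non-targeting control wells, in %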. Reading the numbers: GFP, % of control: higher = more GFP per well, higher productivity; viability (ATP), % of control: higher = more viable cells (more ATP). Call rule: 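Called active when intracellular GFP, relative to negative control, is at or above 120%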.
In all, the deposit lists about 50,000 reagents; shown is a part drawn at random. Over the whole deposit, about 4,000 (8%) are marked active. 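Mouse siRNA library applied to hamster cells; one well for each siRNA.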 Unmarked entries are inactive. Reagents against one gene are numbered here. Reagent sequences are not shown.

| target gene | reagent no. | GFP, % of control | viability (ATP), % of control |
| --- | --- | --- | --- |
| Phf23 (PHD finger protein 23) | 1 | 38.9 | 57.8 |
| Phf23 (PHD finger protein 23) | 2 | 91 | 82.7 |
| Phf23 (PHD finger protein 23) | 3 | 93.8 | 74.5 |
| Tha1 (threonine aldolase 1) | 1 | 108 | 63.2 |
| Tha1 (threonine aldolase 1) | 2 | 59.4 | 69.3 |
| Tha1 (threonine aldolase 1) | 3 | 66.9 | 82.1 |
| Clta (clathrin light chain A) | 1 | 162 (active) | 111 |
| Clta (clathrin light chain A) | 2 | 103 | 46.9 |
| Vti1a (vesicle transport through interaction with t-SNAREs 1A) | 1 | 90 | 68.2 |
| Vti1a (vesicle transport through interaction with t-SNAREs 1A) | 2 | 92 | 89.9 |
| Vti1a (vesicle transport through interaction with t-SNAREs 1A) | 3 | 90.5 | 73.5 |
| Sumf1 (sulfatase modifying factor 1) | 1 | 95.7 | 96.5 |
| Sumf1 (sulfatase modifying factor 1) | 2 | 136 (active) | 137 |
| Sumf1 (sulfatase modifying factor 1) | 3 | 103 | 78.4 |
| Adam32 (a disintegrin and metallopeptidase domain 32) | 1 | 56.1 | 79 |
| Adam32 (a disintegrin and metallopeptidase domain 32) | 2 | 59.6 | 74.8 |
| Adam32 (a disintegrin and metallopeptidase domain 32) | 3 | 77.9 | 78.9 |
| Rufy3 (RUN and FYVE domain containing 3) | 1 | 56.5 | 65.2 |
| Rufy3 (RUN and FYVE domain containing 3) | 2 | 86.3 | 87 |
| Rufy3 (RUN and FYVE domain containing 3) | 3 | 122 (active) | 75.3 |
| Or1j18 (olfactory receptor family 1 subfamily J member 18) | 1 | 114 | 67.3 |
| Or1j18 (olfactory receptor family 1 subfamily J member 18) | 2 | 100 | 57.6 |
| Or1j18 (olfactory receptor family 1 subfamily J member 18) | 3 | 72.4 | 53.2 |
| Clmn (calmin) | 1 | 54.7 | 71.5 |
| Clmn (calmin) | 2 | 73.4 | 65.4 |
| Clmn (calmin) | 3 | 111 | 111 |
| Hnrnpm (heterogeneous nuclear ribonucleoprotein M) | 1 | 63.5 | 77.8 |
| Hnrnpm (heterogeneous nuclear ribonucleoprotein M) | 2 | 141 (active) | 72.7 |
| Hnrnpm (heterogeneous nuclear ribonucleoprotein M) | 3 | 69.8 | 55 |
| Sesn3 (sestrin 3) | 1 | 62.4 | 45.1 |
| Sesn3 (sestrin 3) | 2 | 85.5 | 90.4 |
| Sesn3 (sestrin 3) | 3 | 47.8 | 58.4 |
| Slc22a7 | 1 | 83.4 | 84.6 |
| Slc22a7 | 2 | 55.3 | 47.4 |
| Slc22a7 | 3 | 48.2 | 65.1 |
| Brcc3 (BRCA1/BRCA2-containing complex, subunit 3) | 1 | 105 | 104 |
| Brcc3 (BRCA1/BRCA2-containing complex, subunit 3) | 2 | 55.4 | 55 |
| Brcc3 (BRCA1/BRCA2-containing complex, subunit 3) | 3 | 80.3 | 109 |
| Brs3 (bombesin-like receptor 3) | 1 | 49.6 | 50.6 |
| Brs3 (bombesin-like receptor 3) | 2 | 45.5 | 60.8 |
| Brs3 (bombesin-like receptor 3) | 3 | 58.7 | 38.1 |
| Pgk2 (phosphoglycerate kinase 2) | 1 | 55.8 | 72.6 |
| Or9i1b (olfactory receptor family 9 subfamily I member 1B) | 1 | 35.8 | 48.6 |
| Or9i1b (olfactory receptor family 9 subfamily I member 1B) | 2 | 32.9 | 75 |
| Or9i1b (olfactory receptor family 9 subfamily I member 1B) | 3 | 38 | 57.8 |
| Ppp4r2 (protein phosphatase 4, regulatory subunit 2) | 1 | 88.2 | 119 |
| Ppp4r2 (protein phosphatase 4, regulatory subunit 2) | 2 | 83.1 | 57.9 |
| Ces2e (carboxylesterase 2E) | 1 | 86.2 | 84.6 |
| Ces2e (carboxylesterase 2E) | 2 | 116 | 96 |
| Ces2e (carboxylesterase 2E) | 3 | 70.5 | 87 |
| Mical1 | 1 | 85.6 | 92.6 |
| Mical1 | 2 | 114 | 102 |
| Mical1 | 3 | 65.6 | 54 |
| Micu1 (mitochondrial calcium uptake 1) | 1 | 74.8 | 91.4 |
| Micu1 (mitochondrial calcium uptake 1) | 2 | 60.6 | 58.8 |
| Cmtr2 (cap methyltransferase 2) | 1 | 84.4 | 101 |
| Cmtr2 (cap methyltransferase 2) | 2 | 99.8 | 81.4 |
| Cmtr2 (cap methyltransferase 2) | 3 | 137 (active) | 135 |
| Stim1 (stromal interaction molecule 1) | 1 | 140 (active) | 82.9 |
| Stim1 (stromal interaction molecule 1) | 2 | 86.3 | 69.4 |
| Stim1 (stromal interaction molecule 1) | 3 | 54.1 | 67 |
| Or7g16 (olfactory receptor family 7 subfamily G member 16) | 1 | 67.5 | 73.7 |
| Or7g16 (olfactory receptor family 7 subfamily G member 16) | 2 | 88.2 | 71.4 |
| Or7g16 (olfactory receptor family 7 subfamily G member 16) | 3 | 108 | 83.8 |
| G0s2 (G0/G1 switch gene 2) | 1 | 87.9 | 68.1 |
| G0s2 (G0/G1 switch gene 2) | 2 | 111 | 88.5 |
| G0s2 (G0/G1 switch gene 2) | 3 | 75.2 | 76 |
| Bax (BCL2-associated X protein) | 1 | 82.2 | 64.5 |
| Bax (BCL2-associated X protein) | 2 | 72.1 | 67.6 |
| Bax (BCL2-associated X protein) | 3 | 82.7 | 77.1 |
| D430018E03Rik (RIKEN cDNA D430018E03 gene) | 1 | 79.9 | 82.4 |
| D430018E03Rik (RIKEN cDNA D430018E03 gene) | 2 | 88.5 | 70.4 |
| D430018E03Rik (RIKEN cDNA D430018E03 gene) | 3 | 124 (active) | 87.6 |
| Vcam1 (vascular cell adhesion molecule 1) | 1 | 88.9 | 101 |
| Vcam1 (vascular cell adhesion molecule 1) | 2 | 123 (active) | 116 |
| Nek3 (NIMA (never in mitosis gene a)-related expressed kinase 3) | 1 | 62.2 | 76.4 |
| Slc7a14 | 1 | 41.6 | 21 |
| Slc7a14 | 2 | 312 (active) | 101 |
| Slc7a14 | 3 | 46.5 | 49.5 |
| Cxcl11 (chemokine (C-X-C motif) ligand 11) | 1 | 93.8 | 93.4 |
| Cxcl11 (chemokine (C-X-C motif) ligand 11) | 2 | 58.4 | 73.8 |
| Tmem178b (transmembrane protein 178B) | 1 | 50.7 | 62.4 |
| Tmem178b (transmembrane protein 178B) | 2 | 93.9 | 81 |
| Tmem178b (transmembrane protein 178B) | 3 | 103 | 102 |

9 successive entries already listed:
| target gene | reagent no. | GFP, % of control | viability (ATP), % of control |
| --- | --- | --- | --- |
| Or9i1b (olfactory receptor family 9 subfamily I member 1B) | 3 | 38 | 57.8 |
| Ppp4r2 (protein phosphatase 4, regulatory subunit 2) | 1 | 88.2 | 119 |
| Ppp4r2 (protein phosphatase 4, regulatory subunit 2) | 2 | 83.1 | 57.9 |
| Ces2e (carboxylesterase 2E) | 1 | 86.2 | 84.6 |
| Ces2e (carboxylesterase 2E) | 2 | 116 | 96 |
| Ces2e (carboxylesterase 2E) | 3 | 70.5 | 87 |
| Mical1 | 1 | 85.6 | 92.6 |
| Mical1 | 2 | 114 | 102 |
| Mical1 | 3 | 65.6 | 54 |
